Construct, isoform or probe ends are uncertain for at least one entry. At least one verdict was read from the data and is not stated in words by the source.
What was measured:
[1] = target: AGO2 (RISC loaded with miR-449a) (mouse) (UniProt Q8CJG0); experiment: double-filter binding titration; conditions: 0.5 nM target; phosphorothioate flanked by 2'-O-methyl at t10 and t11 per Methods; 5' phosphate; filter titration: 30 mM HEPES-KOH pH 7.9, 120 mM K acetate, 3.5 mM Mg acetate, 2 mM DTT, 0.01% CHAPS, 37 C, 1 h; recombinant protein; protein details: 3xFLAG; label: 5' 32P
[2] = target: AGO2 (RISC loaded with let-7a) (mouse) (UniProt Q8CJG0); experiment: double-filter binding titration; conditions: 0.5 nM target; target: phosphorothioate flanked by 2'-O-methyl at t10 and t11 per Methods; 5' phosphate; filter titration: 30 mM HEPES-KOH pH 7.9, 120 mM K acetate, 3.5 mM Mg acetate, 2 mM DTT, 0.01% CHAPS, 37 C, 1 h; recombinant protein; protein details: 3xFLAG; label: 5' 32P on target

Chains of the proteins cited; added tags and fusions are not shown.
UniProt Q8CJG0, whole entry: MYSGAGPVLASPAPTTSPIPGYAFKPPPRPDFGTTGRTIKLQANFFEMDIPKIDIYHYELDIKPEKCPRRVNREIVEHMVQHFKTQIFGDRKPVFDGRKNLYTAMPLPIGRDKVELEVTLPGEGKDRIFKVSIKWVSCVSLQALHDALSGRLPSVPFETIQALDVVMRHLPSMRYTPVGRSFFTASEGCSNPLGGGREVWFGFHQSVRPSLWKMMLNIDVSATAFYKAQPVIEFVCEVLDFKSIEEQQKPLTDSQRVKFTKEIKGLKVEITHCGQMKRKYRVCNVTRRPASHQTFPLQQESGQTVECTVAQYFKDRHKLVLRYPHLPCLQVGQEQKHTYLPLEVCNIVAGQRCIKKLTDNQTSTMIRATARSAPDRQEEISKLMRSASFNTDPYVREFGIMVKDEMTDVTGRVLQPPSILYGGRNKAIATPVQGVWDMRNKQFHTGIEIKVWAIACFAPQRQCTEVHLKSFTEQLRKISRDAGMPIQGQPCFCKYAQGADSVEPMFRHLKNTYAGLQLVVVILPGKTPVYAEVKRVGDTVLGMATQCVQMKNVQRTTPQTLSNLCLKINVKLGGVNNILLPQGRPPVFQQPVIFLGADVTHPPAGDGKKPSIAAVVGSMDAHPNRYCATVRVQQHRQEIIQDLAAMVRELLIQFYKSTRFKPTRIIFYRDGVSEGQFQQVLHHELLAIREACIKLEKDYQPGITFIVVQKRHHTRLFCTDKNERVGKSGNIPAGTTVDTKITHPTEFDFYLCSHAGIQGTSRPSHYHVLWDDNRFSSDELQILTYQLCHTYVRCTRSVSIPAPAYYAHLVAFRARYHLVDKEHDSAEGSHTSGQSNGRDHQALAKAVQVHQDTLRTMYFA

Q: Does “AUGAAAUCGAUAUCUAUCACUGCCAACU [miR-449a titration target]” bind [1]?
A: Result: binds

Q: Does “UGAGGUAGUAGGUUGUAUAGU / AAAAUGAUAACAAGGAUCUACCUCAAAA [let-7a guide / titration target]” bind [2]?
A: Result: binds
